Test results from US8466176B2 (priority 2008, dated 2013).
Some results were stated once for a whole list of compounds, not compound by compound.

Assays:
[1] = test system: Phytophthora infestans; assay type: in vivo; conditions: 500 ppm of active ingredient; tomato, preventive spray, evaluated 7 days after inoculation; 0% = control, 100% = no disease
[2] = test system: Plasmopara viticola; assay: Plasmopara Test (Grapevines)/Protective; assay type: in vivo; conditions: 100 ppm of active ingredient, protective spray, evaluated 6 days after inoculation, 0% = control, 100% = no disease

Row | SMILES | efficacy [1] | efficacy [2]
1 | COC=CC#Cc1nc(CON=C(c2ccccc2)c2nnnn2C)cs1 [Example 136] | ≥ 70% | 
2 | CCSCC#Cc1ccc(F)c(CON=C(c2ccccc2)c2nnnn2C)n1 [Example 102] | ≥ 70% | 
3 | Cn1nnnc1C(=NOCc1cccc(C#CC2CCCC2)n1)c1ccccc1 [Example 29] | ≥ 70% | ≥ 70%
4 | Cn1nnnc1C(=NOCc1csc(C#CCC2CCCC2)n1)c1ccccc1 [Example 66] | ≥ 70% | ≥ 70%
5 | CCCCC#Cc1nc(CON=C(c2ccccc2)n2nnnc2C)cs1 [Example 164] | ≥ 70% | 
6 | Cn1nnnc1C(=NOCc1nc(Cl)sc1Cl)c1ccccc1 [Example 113, N-[(2,5-dichloro-1,3-thiazol-4-yl)methoxy]-1-(1-methyl-1H-tetrazol-5-yl)-1-phenylmethanimine] |  | ≥ 70%
7 | CCCC#Cc1nc(CON=C(c2ccccc2)c2nnnn2C)c(Cl)s1 [Example 115] | ≥ 70% | ≥ 70%
8 | Cn1nnnc1C(=NOCc1cccc(C#CCn2ccc(C(F)(F)F)n2)n1)c1ccccc1 [Example 110] | ≥ 70% | 
9 | Cn1nnnc1C(=NOCc1csc(C#CC2CCCC2)n1)c1ccccc1 [Example 69] | ≥ 70% | ≥ 70%
10 | CC(=O)OCCCC#Cc1nc(CON=C(c2ccccc2)c2nnnn2C)cs1 [Example 137] | ≥ 70% | ≥ 70%
11 | Cn1nnnc1C(=NOCc1nc(C#CC2CCCCC2)sc1Cl)c1ccccc1 [Example 120] | ≥ 70% | ≥ 70%
12 | Cn1nnnc1C(=NOCc1cccc(C#CC2=CCCCC2)n1)c1ccccc1 [Example 124] | ≥ 70% | ≥ 70%
13 | CCCCCC/C=C/c1nc(CON=C(c2ccccc2)c2nnnn2C)cs1 [Example 82] | ≥ 70% | 
14 | Cn1nnnc1C(=NOCc1nc(C#CCC2CCCCC2)ccc1F)c1ccccc1 [Example 97] | ≥ 70% | ≥ 70%
15 | Cn1nnnc1C(=NOCc1cccc(NCCC2CC(F)(F)C2(F)F)n1)c1ccccc1 (centres unmarked) [Example 143] | ≥ 70% | ≥ 70%
16 | Cn1nnnc1C(=NOCc1nc(C#CCOc2ccccc2)sc1Cl)c1ccccc1 [Example 119] | ≥ 70% | ≥ 70%
17 | Cn1nnnc1C(=NOCc1nc(C#CCCCCl)ccc1F)c1ccccc1 [Example 105] | ≥ 70% | ≥ 70%

Row | SMILES | efficacy [1] | efficacy [2]
18 | CCCC(C)C#Cc1nc(CON=C(c2ccccc2)c2nnnn2C)cs1 (centres unmarked) [Example 64] | ≥ 70% | ≥ 70%
19 | Cn1nnnc1C(=NOCc1csc(/C=C/Cc2ccccc2)n1)c1ccccc1 [Example 88] | ≥ 70% | ≥ 70%
20 | CC(C)CC#Cc1nc(CON=C(c2ccccc2)c2nnnn2C)cs1 [Example 61] | ≥ 70% | ≥ 70%
21 | Cn1nnnc1C(=NOCc1cccc(/C=C/c2cc(F)cc(F)c2)n1)c1ccccc1 [Example 95] | ≥ 70% | 
22 | COc1cccc(/C=C/c2cccc(CON=C(c3ccccc3)c3nnnn3C)n2)c1 [Example 87] | ≥ 70% | 
23 | CC(C)CCC#Cc1ccc(F)c(CON=C(c2ccccc2)c2nnnn2C)n1 [Example 101] | ≥ 70% | ≥ 70%
24 | Cn1nnnc1C(=NOCc1csc(C#Cc2ccccc2)n1)c1ccccc1 [Example 59] | ≥ 70% | ≥ 70%
25 | CC(C)CCC#Cc1nc(CON=C(c2ccccc2)c2nnnn2C)c(Cl)s1 [Example 118] | ≥ 70% | ≥ 70%
26 | CCc1ccc(C#Cc2nc(CON=C(c3ccccc3)c3nnnn3C)ccc2OC)cc1 [Example 134] | ≥ 70% | ≥ 70%
27 | CCCC#Cc1nc(CON=C(c2ccccc2)n2nnnc2C)cs1 [Example 165] | ≥ 70% | 
28 | CCCCC/C=C/c1nc(CON=C(c2ccccc2)c2nnnn2C)cs1 [Example 81] | ≥ 70% | ≥ 70%
29 | Cn1nnnc1C(=NOCc1nc(C#CCCCC#N)sc1Cl)c1ccccc1 [Example 122] | ≥ 70% | ≥ 70%
30 | Cn1nnnc1C(=NOCc1nc(C#CCCCc2ccccc2)sc1Cl)c1ccccc1 [Example 123] | ≥ 70% | ≥ 70%
31 | CCCCC#Cc1ccc(F)c(CON=C(c2ccccc2)c2nnnn2C)n1 [Example 99, N-{[3-fluoro-6-(hex-1-yn-1-yl)pyridin-2-yl]methoxy}-1-(1-methyl-1H-tetrazol-5-yl)-1-phenylmethanimine] |  | ≥ 70%
32 | Cn1nnnc1C(=NOCc1nc(C#CCCCc2ccccc2)ccc1F)c1ccccc1 [Example 104] | ≥ 70% | ≥ 70%
33 | Cn1nnnc1C(=NOCc1csc(C#CCC2CCCCC2)n1)c1ccccc1 [Example 67] | ≥ 70% | ≥ 70%
